From publication PMC2684528
No constants are given. Whether binding was seen depends on the method and setting. In cells and extracts the contact can be indirect. Some binding calls cover weakened binding; strength is not graded here. For some of these results: Where a sequence is shown, tags or fusion partners need not be part of it.

Amino acid sequences for entries named in this document (tags omitted). A change or cut given only in a name is not applied to a line headed by its entry. Chains listed by the source or under a name are the forms on record and can include a tag or linker.
UniProt P49023: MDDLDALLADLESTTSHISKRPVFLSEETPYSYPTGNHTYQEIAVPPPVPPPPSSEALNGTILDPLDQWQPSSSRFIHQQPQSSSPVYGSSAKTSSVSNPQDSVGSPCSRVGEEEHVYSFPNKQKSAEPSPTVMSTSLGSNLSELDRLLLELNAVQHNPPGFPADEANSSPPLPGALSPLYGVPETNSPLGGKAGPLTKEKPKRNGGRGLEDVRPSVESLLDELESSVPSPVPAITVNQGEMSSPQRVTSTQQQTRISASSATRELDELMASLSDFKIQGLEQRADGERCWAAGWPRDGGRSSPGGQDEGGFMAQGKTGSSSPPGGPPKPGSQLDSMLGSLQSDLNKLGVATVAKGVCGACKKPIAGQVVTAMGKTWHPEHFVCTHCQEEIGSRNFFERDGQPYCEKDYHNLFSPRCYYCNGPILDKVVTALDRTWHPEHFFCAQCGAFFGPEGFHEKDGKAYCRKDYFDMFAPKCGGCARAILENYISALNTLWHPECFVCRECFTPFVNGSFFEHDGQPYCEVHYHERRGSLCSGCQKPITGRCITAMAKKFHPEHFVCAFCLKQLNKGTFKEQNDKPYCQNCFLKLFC
UniProt P34152: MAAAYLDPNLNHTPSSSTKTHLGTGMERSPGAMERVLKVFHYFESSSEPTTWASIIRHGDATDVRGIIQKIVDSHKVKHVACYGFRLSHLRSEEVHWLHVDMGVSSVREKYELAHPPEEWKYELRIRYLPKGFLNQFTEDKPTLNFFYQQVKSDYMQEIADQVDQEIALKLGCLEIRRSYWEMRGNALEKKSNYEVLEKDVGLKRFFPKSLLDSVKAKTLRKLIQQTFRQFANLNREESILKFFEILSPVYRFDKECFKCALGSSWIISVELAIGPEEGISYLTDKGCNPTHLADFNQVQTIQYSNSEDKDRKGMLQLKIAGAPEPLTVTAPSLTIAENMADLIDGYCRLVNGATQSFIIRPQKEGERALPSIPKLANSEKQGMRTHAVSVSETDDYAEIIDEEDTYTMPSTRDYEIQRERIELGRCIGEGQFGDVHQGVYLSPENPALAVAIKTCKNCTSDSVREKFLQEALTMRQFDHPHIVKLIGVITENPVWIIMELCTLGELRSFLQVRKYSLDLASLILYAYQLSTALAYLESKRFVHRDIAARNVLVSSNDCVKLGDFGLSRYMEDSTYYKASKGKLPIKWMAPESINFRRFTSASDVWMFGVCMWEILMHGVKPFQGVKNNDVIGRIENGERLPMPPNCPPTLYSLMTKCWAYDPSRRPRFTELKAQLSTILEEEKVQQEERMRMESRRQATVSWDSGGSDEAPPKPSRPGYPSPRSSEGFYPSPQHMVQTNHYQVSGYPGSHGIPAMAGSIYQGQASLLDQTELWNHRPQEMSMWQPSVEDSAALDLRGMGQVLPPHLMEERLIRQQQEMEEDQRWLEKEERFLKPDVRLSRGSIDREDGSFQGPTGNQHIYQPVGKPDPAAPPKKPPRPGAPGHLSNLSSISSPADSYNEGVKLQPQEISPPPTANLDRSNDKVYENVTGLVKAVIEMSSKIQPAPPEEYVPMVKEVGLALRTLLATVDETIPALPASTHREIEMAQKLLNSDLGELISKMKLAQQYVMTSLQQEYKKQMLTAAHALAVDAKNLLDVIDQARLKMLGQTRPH
GFP-FAK^KD (P34152, form named): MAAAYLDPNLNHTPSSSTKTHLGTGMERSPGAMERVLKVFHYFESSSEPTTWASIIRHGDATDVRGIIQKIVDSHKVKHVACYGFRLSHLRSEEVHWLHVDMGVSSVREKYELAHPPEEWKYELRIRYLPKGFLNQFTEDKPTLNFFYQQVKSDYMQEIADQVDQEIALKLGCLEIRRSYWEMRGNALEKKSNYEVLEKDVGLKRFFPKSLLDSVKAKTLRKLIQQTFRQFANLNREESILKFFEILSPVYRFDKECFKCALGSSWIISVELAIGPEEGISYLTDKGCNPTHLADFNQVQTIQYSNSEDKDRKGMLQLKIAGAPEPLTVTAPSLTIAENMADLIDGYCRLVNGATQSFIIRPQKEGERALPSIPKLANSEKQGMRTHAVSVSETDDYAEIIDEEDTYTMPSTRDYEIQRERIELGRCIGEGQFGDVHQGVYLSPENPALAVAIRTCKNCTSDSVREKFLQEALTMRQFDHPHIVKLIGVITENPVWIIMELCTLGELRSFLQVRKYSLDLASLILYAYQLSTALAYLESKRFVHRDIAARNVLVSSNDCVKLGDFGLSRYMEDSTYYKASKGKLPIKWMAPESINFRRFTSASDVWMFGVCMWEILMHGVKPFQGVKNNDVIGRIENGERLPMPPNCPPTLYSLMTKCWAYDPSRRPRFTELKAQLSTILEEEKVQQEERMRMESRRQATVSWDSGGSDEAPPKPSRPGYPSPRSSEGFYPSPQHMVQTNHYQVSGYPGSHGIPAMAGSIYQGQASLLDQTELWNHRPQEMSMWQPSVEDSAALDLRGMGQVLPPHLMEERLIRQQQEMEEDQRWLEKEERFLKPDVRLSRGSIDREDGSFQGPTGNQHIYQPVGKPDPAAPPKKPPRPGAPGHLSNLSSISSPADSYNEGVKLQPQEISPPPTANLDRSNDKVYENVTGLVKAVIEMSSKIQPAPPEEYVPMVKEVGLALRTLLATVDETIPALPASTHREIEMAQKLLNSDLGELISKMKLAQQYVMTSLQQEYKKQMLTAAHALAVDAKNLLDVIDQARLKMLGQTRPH
GFP-FAK^Opn (P34152, form named): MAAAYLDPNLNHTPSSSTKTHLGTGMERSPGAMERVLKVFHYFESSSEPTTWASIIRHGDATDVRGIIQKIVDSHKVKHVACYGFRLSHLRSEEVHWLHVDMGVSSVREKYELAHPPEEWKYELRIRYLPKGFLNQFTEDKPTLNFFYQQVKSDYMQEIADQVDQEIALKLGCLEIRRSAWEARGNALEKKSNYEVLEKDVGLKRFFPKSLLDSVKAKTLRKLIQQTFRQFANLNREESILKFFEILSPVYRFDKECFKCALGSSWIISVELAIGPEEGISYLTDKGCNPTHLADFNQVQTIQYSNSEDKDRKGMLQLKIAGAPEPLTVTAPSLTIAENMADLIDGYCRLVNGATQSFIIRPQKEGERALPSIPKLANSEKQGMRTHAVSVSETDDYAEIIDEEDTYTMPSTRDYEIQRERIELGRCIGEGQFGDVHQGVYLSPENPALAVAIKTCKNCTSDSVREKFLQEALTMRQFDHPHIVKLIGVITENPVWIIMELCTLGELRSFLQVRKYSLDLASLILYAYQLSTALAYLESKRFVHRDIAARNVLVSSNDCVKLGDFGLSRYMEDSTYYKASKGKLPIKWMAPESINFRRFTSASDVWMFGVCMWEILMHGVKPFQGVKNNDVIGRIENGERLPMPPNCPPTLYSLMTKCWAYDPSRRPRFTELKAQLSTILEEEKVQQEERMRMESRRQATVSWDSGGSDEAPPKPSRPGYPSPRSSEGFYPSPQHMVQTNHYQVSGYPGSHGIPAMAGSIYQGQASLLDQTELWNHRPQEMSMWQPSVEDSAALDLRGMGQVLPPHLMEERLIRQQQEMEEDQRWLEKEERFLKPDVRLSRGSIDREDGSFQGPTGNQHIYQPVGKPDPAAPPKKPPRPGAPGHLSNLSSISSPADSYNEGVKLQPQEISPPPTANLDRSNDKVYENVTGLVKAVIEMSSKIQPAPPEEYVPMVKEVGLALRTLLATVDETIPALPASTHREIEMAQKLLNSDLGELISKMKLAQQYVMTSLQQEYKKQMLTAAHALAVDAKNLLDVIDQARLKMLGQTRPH

Assays:
[1] = target: GFP-paxillin (human) (UniProt P49023); assay: co-IP; lysates of HEK293T cells overexpressing FLAG-Nudel, GFP-paxillin (or GFP-Pax^LD, GFP-Pax^LIM) and a third GFP fusion protein (vinculin, FAK or a FAK mutant); anti-FLAG beads; immunoblotting
[2] = target: GFP-paxillin (human) (UniProt P49023); assay: co-IP; as Figure S6B (FLAG-Nudel, GFP-Paxillin and a GFP-FAK mutant coexpressed) but in NIH3T3 and ECV304 cells; unpublished data
[3] = target: T1, FLAG-Nudel (human) (UniProt Q9GZM8); assay: as above
T1 sequence: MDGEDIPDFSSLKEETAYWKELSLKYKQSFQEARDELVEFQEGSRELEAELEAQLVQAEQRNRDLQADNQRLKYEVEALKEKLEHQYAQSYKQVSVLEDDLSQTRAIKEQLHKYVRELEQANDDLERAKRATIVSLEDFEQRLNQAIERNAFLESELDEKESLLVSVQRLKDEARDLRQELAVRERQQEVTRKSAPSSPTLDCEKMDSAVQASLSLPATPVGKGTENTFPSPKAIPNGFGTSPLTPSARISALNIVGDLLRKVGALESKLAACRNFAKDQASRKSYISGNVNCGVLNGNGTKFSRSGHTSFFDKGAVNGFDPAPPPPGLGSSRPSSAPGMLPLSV

[4] = target: T1, FLAG-Nudel (human); assay: co-IP; exogenous proteins expressed separately in HEK293T cells; cell lysates premixed for 2 h, then co-IP with anti-FLAG resin
[5] = target: T1, FLAG-Nudel (human); assay: co-IP; lysates of HEK293T cells overexpressing FLAG-Nudel, GFP-paxillin (or GFP-Pax^LD, GFP-Pax^LIM) and a third GFP fusion protein (vinculin, FAK or a FAK mutant); anti-FLAG beads; immunoblotting
[6] = target: T1, FLAG-Nudel (human); assay: co-IP; lysates of HEK293T cells coexpressing GFP-paxillin and a FLAG fusion protein; anti-FLAG M2 agarose beads 2 h at 4 °C in co-IP buffer (20 mM Tris-HCl pH 7.5, 100 mM KCl, 0.1% NP-40, 1 mM EDTA, 10% glycerol, 1 mM DTT, phosphatase and protease inhibitors); eluted with FLAG peptide; Ponceau S staining and immunoblotting
[7] = target: T2, FLAG-Nudel (expressed in E. coli) (human) (UniProt Q9GZM8); assay: pull-down; reciprocal: bacterial lysates containing GST-tagged vinculin or paxillin mixed with lysate containing FLAG-Nudel, then anti-FLAG resin (the legend calls it co-IP)
T2 sequence: T1 sequence

[8] = target: T3, FLAG-GFP-Nudel (human) (UniProt Q9GZM8); assay: co-IP; low levels of FLAG-GFP-Nudel expressed in HEK293T cells transfected with control or increasing amounts of FAK RNAi plasmids; anti-FLAG resin; endogenous proteins detected by immunoblotting
T3 sequence: T1 sequence

[9] = target: GST-paxillin (human) (UniProt P49023); assay: pull-down; bacterial lysates containing GST fusion proteins and FLAG-Nudel premixed for 1 h, then glutathione beads for 1 h at 4 °C; immunoblotting

GFP-FAK (from UniProt P34152 1-1052) (enzyme)
binding [1]: binds

GFP-FAK^KD (from UniProt P34152 1-1052) (enzyme)
binding [1]: binds

GFP-FAK^Opn (from UniProt P34152 1-1052) (enzyme)
binding [2]: binds
binding [1]: binds

GFP-paxillin (from UniProt P49023 1-591)
binding [3]: binds
binding [4]: binds
binding [5]: binds
binding [6]: binds

GST-paxillin (from UniProt P49023 1-591)
binding [7]: binds

Tyr/Ser/Thr-phosphorylated isoforms of GFP-paxillin (from UniProt P49023 1-591)
binding [6]: binds

endogenous paxillin (from UniProt P49023 1-591)
binding [8]: binds

B1: GFP-Cdc42GAP (protein, UniProt Q07960 1-439)
chain: MDPLSELQDDLTLDDTSEALNQLKLASIDEKNWPSDEMPDFPKSDDSKSSSPELVTHLKWDDPYYDIARHQIVEVAGDDKYGRKIIVFSACRMPPSHQLDHSKLLGYLKHTLDQYVESDYTLLYLHHGLTSDNKPSLSWLRDAYREFDRKYKKNIKALYIVHPTMFIKTLLILFKPLISFKFGQKIFYVNYLSELSEHVKLEQLGIPRQVLKYDDFLKSTQKSPATAPKPMPPRPPLPNQQFGVSLQHLQEKNPEQEPIPIVLRETVAYLQAHALTTEGIFRRSANTQVVREVQQKYNMGLPVDFDQYNELHLPAVILKTFLRELPEPLLTFDLYPHVVGFLNIDESQRVPATLQVLQTLPEENYQVLRFLTAFLVQISAHSDQNKMTNTNLAVVFGPNLLWAKDAAITLKAINPINTFTKFLLDHQGELFPSPDPSGL
binding [4]: binds

B2: FLAG-Nudel (expressed in E. coli) (protein, UniProt Q9GZM8 1-345)
chain: T1 sequence
binding [9]: binds
